PubChem BioAssay AID743454, Peter MacCallum Cancer Centre | 2014

- Assay: 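Genes whose loss kills vorinostat-resistant colon cancer cells under vorinostat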 (primary screen)
- Cells: human HCT116-VR colon cancer cells, selected for vorinostat resistance
- Reagent: siRNA pool against human genes, 40 nM siRNA pool
- Time to read-out: vorinostat for 24 h, read-out about 72 h after transfection
- Treatment: vorinostat at 2.5 µM final
- Measured: 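Cell viability by CellTiter-Fluor and caspase 3/7 activity by luminescence, each scaled to mock wells per plate, duplicates averaged, then robust z-scored over all plates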
- Scale: viability robust z-score: higher = more viable cells than screen typical; caspase robust z-score: higher = more caspase 3/7 activity than screen typical
- Active means: 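a knock-down is a hit when classed RV1 or RV2 for lowered viability, or CA1 or CA2 for caspase activation; those lethal without drug were dropped; hits were retested singly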
Here is one part, drawn at random, of about 18,000 reagents. In the full data, 450 (2.5%) got an active call. 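Single biological run; no consistent viability z cut-off exists, so the class columns, not z-scores, define the calls.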

GBP3 (guanylate binding protein 3): viability hit class = no change; caspase hit class = no change; viability robust z-score = -2.23; caspase robust z-score = 2.99; outcome = inactive
ANGPTL3 (angiopoietin like 3): viability hit class = no change; caspase hit class = no change; viability robust z-score = 1.48; caspase robust z-score = -0.26; outcome = inactive
GRIP1 (glutamate receptor interacting protein 1): viability hit class = no change; caspase hit class = no change; viability robust z-score = 0.2; caspase robust z-score = -0.75; outcome = inactive
MLLT3 (MLLT3 super elongation complex subunit): viability hit class = no change; caspase hit class = no change; viability robust z-score = 1.81; caspase robust z-score = -0.63; outcome = inactive
DOLPP1 (dolichyldiphosphatase 1): viability hit class = no change; caspase hit class = no change; viability robust z-score = -0.42; caspase robust z-score = 2.25; outcome = inactive
ABCB6 (ATP binding cassette subfamily B member 6 (LAN blood group)): viability hit class = no change; caspase hit class = no change; viability robust z-score = 0.82; caspase robust z-score = 0.01; outcome = inactive
C8orf44 (chromosome 8 putative open reading frame 44): viability hit class = no change; caspase hit class = no change; viability robust z-score = -0.88; caspase robust z-score = 0.48; outcome = inactive
ZFAT (zinc finger and AT-hook domain containing): viability hit class = no change; caspase hit class = no change; viability robust z-score = 1.07; caspase robust z-score = 0.31; outcome = inactive
OLFML2A (olfactomedin like 2A): viability hit class = no change; caspase hit class = no change; viability robust z-score = -0.92; caspase robust z-score = 2.33; outcome = inactive
ANKHD1 (ankyrin repeat and KH domain containing 1): viability hit class = no change; caspase hit class = no change; viability robust z-score = 0.28; caspase robust z-score = 1.04; outcome = inactive
RND1 (Rho family GTPase 1): viability hit class = no change; caspase hit class = no change; viability robust z-score = 0.96; caspase robust z-score = -0.62; outcome = inactive
ADAMTS13 (ADAM metallopeptidase with thrombospondin type 1 motif 13): viability hit class = no change; caspase hit class = no change; viability robust z-score = 0.22; caspase robust z-score = -0.36; outcome = inactive

Part of the list above, set out differently.
ZFAT (zinc finger and AT-hook domain containing)
- viability hit class: no change
- caspase hit class: no change
- viability robust z-score: 1.07
- caspase robust z-score: 0.31
- outcome: inactive

OLFML2A (olfactomedin like 2A)
- viability hit class: no change
- caspase hit class: no change
- viability robust z-score: -0.92
- caspase robust z-score: 2.33
- outcome: inactive
